What all share (experiment): co-IP; HEK293T cells co-transfected with the plasmids; NP-40 lysis buffer (50 mM Tris-HCl pH 7.2, 225 mM KCl, 1% NP-40); about 3 mg lysate on anti-FLAG agarose beads 3 h at 4 °C; eluted with FLAG peptide; western blot
On the technique in general: In western blotting, separated proteins are transferred to a membrane and probed.

The chains behind the UniProt entries cited, without tags or fusion partners. Where a name states a change or a piece, a line headed by the entry shows the natural chain unless it says otherwise.
UniProt Q13616: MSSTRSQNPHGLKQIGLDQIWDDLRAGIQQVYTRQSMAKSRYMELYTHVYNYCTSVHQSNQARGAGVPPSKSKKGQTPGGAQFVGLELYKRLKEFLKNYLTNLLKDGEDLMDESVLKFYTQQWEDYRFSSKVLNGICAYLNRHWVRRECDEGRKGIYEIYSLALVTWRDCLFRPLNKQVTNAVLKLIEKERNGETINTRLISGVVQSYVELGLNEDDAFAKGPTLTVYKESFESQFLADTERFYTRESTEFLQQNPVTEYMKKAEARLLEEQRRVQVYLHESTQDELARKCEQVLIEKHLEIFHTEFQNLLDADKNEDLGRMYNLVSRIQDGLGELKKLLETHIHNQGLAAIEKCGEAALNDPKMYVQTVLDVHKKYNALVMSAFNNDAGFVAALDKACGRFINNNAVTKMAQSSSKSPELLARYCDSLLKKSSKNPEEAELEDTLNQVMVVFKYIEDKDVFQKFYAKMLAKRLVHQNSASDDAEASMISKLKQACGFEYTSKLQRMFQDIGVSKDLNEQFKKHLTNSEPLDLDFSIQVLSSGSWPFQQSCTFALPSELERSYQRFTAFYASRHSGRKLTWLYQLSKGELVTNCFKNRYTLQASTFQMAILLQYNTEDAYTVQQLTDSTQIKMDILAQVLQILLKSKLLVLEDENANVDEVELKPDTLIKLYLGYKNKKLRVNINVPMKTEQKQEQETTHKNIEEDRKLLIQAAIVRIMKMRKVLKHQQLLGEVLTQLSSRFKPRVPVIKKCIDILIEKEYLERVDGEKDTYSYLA
UniProt A4I137: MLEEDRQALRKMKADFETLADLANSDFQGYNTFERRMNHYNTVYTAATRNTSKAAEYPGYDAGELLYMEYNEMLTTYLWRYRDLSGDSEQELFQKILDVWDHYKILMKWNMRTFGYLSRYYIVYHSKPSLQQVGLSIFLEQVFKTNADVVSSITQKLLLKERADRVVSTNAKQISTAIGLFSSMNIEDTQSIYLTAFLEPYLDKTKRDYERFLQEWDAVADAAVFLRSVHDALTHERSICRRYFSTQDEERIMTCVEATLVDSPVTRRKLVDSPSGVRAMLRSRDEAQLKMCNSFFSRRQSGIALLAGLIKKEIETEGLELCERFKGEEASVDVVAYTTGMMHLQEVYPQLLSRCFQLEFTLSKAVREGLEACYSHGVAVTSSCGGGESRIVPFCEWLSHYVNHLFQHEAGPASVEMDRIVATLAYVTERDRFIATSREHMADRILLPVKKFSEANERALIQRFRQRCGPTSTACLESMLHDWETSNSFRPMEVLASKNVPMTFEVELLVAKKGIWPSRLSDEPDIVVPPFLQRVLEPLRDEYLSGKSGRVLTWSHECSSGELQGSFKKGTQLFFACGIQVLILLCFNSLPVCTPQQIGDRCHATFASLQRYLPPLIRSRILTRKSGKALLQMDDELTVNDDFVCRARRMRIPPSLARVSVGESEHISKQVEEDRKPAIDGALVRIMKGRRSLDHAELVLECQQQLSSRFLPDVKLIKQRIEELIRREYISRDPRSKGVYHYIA
UniProt A4HV28: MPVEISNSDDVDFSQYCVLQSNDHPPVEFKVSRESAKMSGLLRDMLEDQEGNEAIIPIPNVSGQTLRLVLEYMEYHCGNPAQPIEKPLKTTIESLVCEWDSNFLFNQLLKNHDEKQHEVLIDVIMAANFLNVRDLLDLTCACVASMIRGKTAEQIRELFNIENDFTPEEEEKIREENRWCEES
UniProt P63208: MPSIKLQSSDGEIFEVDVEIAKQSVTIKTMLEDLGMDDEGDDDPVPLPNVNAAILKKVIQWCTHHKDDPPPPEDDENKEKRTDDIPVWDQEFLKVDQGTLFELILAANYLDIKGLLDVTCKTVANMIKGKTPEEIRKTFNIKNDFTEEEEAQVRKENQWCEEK
UniProt A4HZL7: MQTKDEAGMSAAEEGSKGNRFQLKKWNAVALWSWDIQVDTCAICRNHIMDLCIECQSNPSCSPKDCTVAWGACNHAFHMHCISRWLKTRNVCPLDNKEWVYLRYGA

Experiment [1] has as its target CUL1-FLAG (Hs) (human) (UniProt Q13616).
The target in experiment [2] is T1, 2xFLAG-FBXO7 (Hs) (human) (UniProt Q9Y3I1).
T1 sequence: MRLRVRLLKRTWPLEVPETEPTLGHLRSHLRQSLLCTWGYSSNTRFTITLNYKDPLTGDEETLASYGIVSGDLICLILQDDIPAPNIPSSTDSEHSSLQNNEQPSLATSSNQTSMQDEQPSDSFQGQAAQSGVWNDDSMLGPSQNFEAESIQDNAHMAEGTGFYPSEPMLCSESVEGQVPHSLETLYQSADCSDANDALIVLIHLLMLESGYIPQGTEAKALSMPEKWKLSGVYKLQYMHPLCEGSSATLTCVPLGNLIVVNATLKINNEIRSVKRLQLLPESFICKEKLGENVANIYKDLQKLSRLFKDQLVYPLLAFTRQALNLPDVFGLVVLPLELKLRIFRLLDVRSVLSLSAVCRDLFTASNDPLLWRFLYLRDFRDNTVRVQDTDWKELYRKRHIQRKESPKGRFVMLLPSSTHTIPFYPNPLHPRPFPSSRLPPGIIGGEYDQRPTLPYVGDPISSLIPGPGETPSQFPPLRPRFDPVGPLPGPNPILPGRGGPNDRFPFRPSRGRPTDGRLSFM

Experiment [3] deals with LinfCul1-FLAG (L. infantum cullin-like protein-like protein, LINF_240029100) (L. infantum) (UniProt A4I137).
Experiment [4] concerns the target LinfSkp1-FLAG (L. infantum SKP1-like protein, LINF_110018100) (L. infantum) (UniProt A4HV28).

No constants are given. Whether binding was seen depends on the method and setting. In cells and extracts the contact can be indirect. Binding calls can cover weak binding; strength is not graded here. For part of these data: Where a sequence is shown, tags or fusion partners need not be part of it.

As to “LinfSkp1-HA (L. infantum SKP1-like protein, LINF_110018100) (from UniProt A4HV28)”, the binding entry in experiment [1] and in experiment [2] was “binds” in each case. Regarding “SKP1-HA (Hs) (from UniProt P63208 1-163)”, in experiment [3], the binding entry is recorded as “binds”. With “LinfRbx1-HA (L. infantum ring-box protein 1 - putative, LINF_210005300) (from UniProt A4HZL7)”, the binding entry in experiment [1] and in experiment [4] was “binds” in each case. Regarding “LinfCul1-myc (L. infantum cullin-like protein-like protein, LINF_240029100) (from UniProt A4I137)”, in experiment [4], the binding entry is listed as “binds”.

(Values after publication PMC11285970.)
